PubChem BioAssay AID1053208, Peter MacCallum Cancer Centre – 2014

- Screen: 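Synthetic lethal interactions between gene loss and doxorubicin in osteosarcoma cells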 (primary screen)
- System: mouse osteosarcoma cells, early-passage culture from an engineered mouse model of fibroblastic bone tumour
- Knock-down reagent: siRNA pool against mouse genes, 40 nM
- Timing: about 120 h (48 h before drug, then 72 h with drug)
- Challenge: doxorubicin 100 nM for 72 h, roughly 30-40% inhibitory dose
- Detection: 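Viability read as ATP luminescence after 72 h of 100 nM doxorubicin or none, duplicate wells averaged, scaled to non-targeting siRNA, then expressed as robust z-scores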
- Scale: viability z-score with doxorubicin: higher = more viable cells under doxorubicin; viability z-score without drug: higher = more viable cells with knock-down alone
- Rule for the call: 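a pool counts as active when its viability z-score with doxorubicin is -2 or below and its z-score without drug lies between -2 and 2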
Here is an unselected part of about 17,000 reagents tested. 788 of all reagents (4.7%) were called active. 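Calls rest on z-score classes alone; an extra cut-off of viability at most 70% of control was not applied to them.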 Further read-outs or replicates are left out here.

Akp3 scored combined z-score class no change with or without drug; viability z-score with doxorubicin -0.11; viability z-score without drug 1.35; inactive. With knock-down of Tmem74, the screen gave combined z-score class no change with or without drug; viability z-score with doxorubicin -0.56; viability z-score without drug -0.17; inactive. Or11h7 gave combined z-score class no change with or without drug; viability z-score with doxorubicin -1.12; viability z-score without drug 0.84; inactive. Against Mrpl32 the deposit lists combined z-score class no change with or without drug; viability z-score with doxorubicin 1.35; viability z-score without drug 0.34; inactive. Silencing of Icam1 gave: combined z-score class no change with or without drug; viability z-score with doxorubicin 0; viability z-score without drug -1.01; inactive. G6pc2 gave combined z-score class no change with or without drug; viability z-score with doxorubicin 0.67; viability z-score without drug -0.51; inactive.

With knock-down of Klf13, the record shows combined z-score class no change with or without drug; viability z-score with doxorubicin 0.34; viability z-score without drug 1.18; inactive.

An excerpt from above, reduced to “combined z-score class”:
Icam1: no change with or without drug
G6pc2: no change with or without drug

The list goes on:
With knock-down of Sf3a2, the record shows combined z-score class low cell count with doxorubicin only; viability z-score with doxorubicin -3.15; viability z-score without drug 0.17; active. After knock-down of Mbtd1, the record shows combined z-score class no change with or without drug; viability z-score with doxorubicin 0.11; viability z-score without drug -0.17; inactive. With knock-down of Slc35f3, the screen gave combined z-score class no change with or without drug; viability z-score with doxorubicin 0.22; viability z-score without drug 0.34; inactive. With knock-down of Utp25, the screen gave combined z-score class no change with or without drug; viability z-score with doxorubicin 0.22; viability z-score without drug -0.84; inactive. Depletion of Golga3 resulted in: combined z-score class no change with or without drug; viability z-score with doxorubicin 0.67; viability z-score without drug 0.51; inactive. After knock-down of Col11a2, the screen gave combined z-score class no change with or without drug; viability z-score with doxorubicin -1.01; viability z-score without drug -0.84; inactive.

Rtraf showed combined z-score class no change with or without drug; viability z-score with doxorubicin 0.11; viability z-score without drug 0.84; inactive. Silencing of Ralgps2 came out at: combined z-score class no change with or without drug; viability z-score with doxorubicin 1.35; viability z-score without drug 0.51; inactive. After knock-down of Or4k36, the record shows combined z-score class low cell count with doxorubicin only; viability z-score with doxorubicin -2.7; viability z-score without drug -1.85; active. Against Svs6 the deposit lists combined z-score class no change with or without drug; viability z-score with doxorubicin 1.35; viability z-score without drug -1.85; inactive. After knock-down of Hyou1 the results were combined z-score class no change with or without drug; viability z-score with doxorubicin -0.67; viability z-score without drug -0.17; inactive. Against Tceal1, the entry reads combined z-score class no change with or without drug; viability z-score with doxorubicin 1.12; viability z-score without drug 0.17; inactive.
